Assay results reported in article PMC10356794.

Assays:
[1] = biological target: transferrin receptor protein 1 (Tfr1), endogenous in C3H10T1/2-derived adipocytes (mouse (endogenous in C3H10T1/2)) (UniProt Q62351); assay: proximity labelling; BioID as above, read by immunoblot of the streptavidin pulldown of membrane-associated proteins; controls BirA* alone and secreted Sp-BirA*-flag
[2] = biological target: T1, P2x purinoceptor 4, endogenous in C3H10T1/2-derived adipocytes (mouse (endogenous in C3H10T1/2)) (UniProt Q9JJX6); assay: proximity labelling; BioID: conditioned medium of HEK293T cells with Musclin-BirA* (control BirA*) plus 80 uM biotin on fully differentiated C3H10T1/2 adipocytes for 24 h; membrane-associated proteins pulled down with streptavidin agarose at 4 C overnight; differential gel bands identified by mass spectrometry
T1 sequence: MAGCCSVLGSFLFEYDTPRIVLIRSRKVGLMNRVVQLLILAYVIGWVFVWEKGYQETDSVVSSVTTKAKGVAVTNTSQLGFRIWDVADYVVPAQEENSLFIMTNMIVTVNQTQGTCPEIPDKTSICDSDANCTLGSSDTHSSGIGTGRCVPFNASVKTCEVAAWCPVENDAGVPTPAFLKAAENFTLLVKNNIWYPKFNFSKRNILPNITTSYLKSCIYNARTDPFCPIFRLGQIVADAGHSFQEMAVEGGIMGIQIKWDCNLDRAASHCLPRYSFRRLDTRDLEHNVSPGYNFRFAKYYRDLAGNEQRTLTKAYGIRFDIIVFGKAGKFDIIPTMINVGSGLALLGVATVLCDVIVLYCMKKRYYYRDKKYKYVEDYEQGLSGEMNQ

[3] = biological target: transferrin receptor protein 1 (Tfr1), endogenous in C3H10T1/2-derived adipocytes (mouse (endogenous in C3H10T1/2)) (UniProt Q62351); assay: as above

Measured: binding

B1: Musclin-BirA* (Musclin and BirA* fusion protein) (ligand, UniProt P61364 26-130)
chain: FSVDLASQEFGTASLQSPPTAREEKSATELSAKLLRLDDLVSLENDVFETKKKRSFSGFGSPLDRLSAGSVEHRGKQRKAVDHSKKRFGIPMDRIGRNRLSSSRG
binds: all assays above

These are yes or no findings as the source states them, for the method shown. In cells and extracts the contact can be indirect. Here binding means that the protein was enriched with, or labelled near, the bait; the list need not be complete. Sequences can lack the tags named with a protein.
